Whole data set: some 33,000 sequences, median “E-score (-0.5 to 0.5)” near -0.016, cut for the highest 2% near 0.3. The list shows a part of the results.
Biological target: T1, Yer184c (UniProt P39961)
T1 sequence: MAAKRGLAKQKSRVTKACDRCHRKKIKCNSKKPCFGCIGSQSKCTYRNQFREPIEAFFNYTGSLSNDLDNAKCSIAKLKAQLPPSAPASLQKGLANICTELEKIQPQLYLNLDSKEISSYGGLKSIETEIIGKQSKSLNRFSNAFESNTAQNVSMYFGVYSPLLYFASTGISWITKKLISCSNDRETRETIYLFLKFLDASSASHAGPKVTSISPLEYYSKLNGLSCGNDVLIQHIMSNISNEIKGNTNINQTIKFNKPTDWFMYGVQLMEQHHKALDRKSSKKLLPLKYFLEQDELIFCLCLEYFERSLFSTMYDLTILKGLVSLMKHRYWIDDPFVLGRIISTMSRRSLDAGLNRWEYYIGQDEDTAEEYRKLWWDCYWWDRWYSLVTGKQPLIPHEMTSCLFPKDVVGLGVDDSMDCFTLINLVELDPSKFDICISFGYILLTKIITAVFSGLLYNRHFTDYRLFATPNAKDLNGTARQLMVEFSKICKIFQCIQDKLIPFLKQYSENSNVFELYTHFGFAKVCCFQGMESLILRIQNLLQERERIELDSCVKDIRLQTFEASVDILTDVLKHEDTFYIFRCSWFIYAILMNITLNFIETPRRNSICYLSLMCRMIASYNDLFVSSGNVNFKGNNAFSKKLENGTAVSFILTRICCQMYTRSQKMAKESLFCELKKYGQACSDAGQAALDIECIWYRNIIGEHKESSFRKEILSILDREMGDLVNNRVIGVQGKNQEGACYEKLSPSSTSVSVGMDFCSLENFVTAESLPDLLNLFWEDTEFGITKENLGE
Assay: PBM E-score (8-mer binding enrichment) (E-score (-0.5 to 0.5)); higher = stronger / more preferred TF binding
Details: protein concentration: 100 nM; construct: GST-full length
Description: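 Universal 'all 10-mer' protein binding microarrays (Agilent AMADID 015681) probed with GST-tagged S. cerevisiae TFs (full-length or DBD) made by in vitro transcription/translation (PURExpress), about 100-200 nM. Bound TF was detected with fluorescent anti-GST. Each ungapped 8-mer (which stands for itself and its reverse complement) is scored by the PBM enrichment score (E-score), a modified Wilcoxon-Mann-Whitney statistic from -0.5 to +0.5, computed with the Universal PBM Analysis Suite. Scale: above 0.35 generally sequence-specific binding.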

Row | Sequence | PBM E-score
1 | CCGTGCGA | 0.166
2 | CTGAAAGA | 0.167
3 | AGTGGAAA | -0.0383
4 | AAGCAGAC | -0.195
5 | GTGCTTTA | 0.00912
6 | CACACATG | -0.265
7 | CCTTTGCC | -0.14
8 | AATTCGTA | 0.138
9 | GAGAGCGA | -0.0954
10 | GGTGTGAA | 0.182
11 | CGTTGCAG | -0.18
12 | ACATTAGA | -0.0226
13 | CCTAATAG | -0.0409
14 | ACACCGTG | -0.00201
15 | AATGGCGA | -0.0217
16 | CCGGTTGC | 0.355
17 | CAAATTGG | 0.029
18 | AAATGGGA | -0.239
19 | AGACGGCC | -0.0276
20 | GCGAAAAA | 0.14
21 | CACTTTGG | -0.105
22 | TCGATAAA | 0.245
23 | CATCTAAG | -0.105
24 | AGACCTAC | -0.0814
25 | GCCTTCAC | -0.0769

Row | Sequence | PBM E-score
26 | AGGGGTTA | -0.234
27 | GGCTTGAA | 0.057
28 | CCAACCCG | -0.0269
29 | TAATCGAA | 0.106
30 | CCTAGCTC | -0.0492
31 | GGTTTTAA | 0.179
32 | AACATGCA | -0.101
33 | AGACCCTG | -0.252
34 | CCACTGCA | -0.2
35 | CAAGATGG | -0.108
36 | CGCAGGTA | -0.0608
37 | AGCCGGAC | 0.339
38 | GGGGAGAA | -0.0977
39 | CGCCCCCC | -0.352
40 | CGTTACTC | -0.0712
41 | CCGGTTAA | 0.297
42 | TATCATGA | -0.0236
43 | GACCCGAC | -0.0162
44 | ACCTTATA | 0.0526
45 | CCAAACGG | -0.0361
46 | ACCTAGAA | 0.0471
47 | AATTGGCC | -0.127
48 | ATTTATAC | 0.28
49 | GCCTTCCA | -0.306
50 | ATATAGAG | -0.15

An excerpt of these results, field by field:
GACCCGAC
  PBM E-score: -0.0162
ACCTTATA
  PBM E-score: 0.0526
CCAAACGG
  PBM E-score: -0.0361
ACCTAGAA
  PBM E-score: 0.0471

The list continues:

Row | Sequence | PBM E-score
51 | ACCTCCTA | -0.245
52 | CAGAATCG | 0.209
53 | AGTTGGAT | -0.0537
54 | CGACATAC | -0.0669
55 | GCAGGATA | -0.168
56 | AGTTACAC | 0.0959
57 | GACGGCAC | -0.121
58 | GTAAAGTA | 0.053
59 | CAAGTGTC | -0.218
60 | AACCAGAG | -0.147
61 | CCAATGTA | -0.12
62 | GCACGACC | -0.252
63 | AAGCGGGT | -0.106
64 | ATTCCCTC | -0.205
65 | CCTTAAGA | -0.0222
66 | GAACAGAA | 0.131
67 | CCCGGGCG | 0.273
68 | ACGTACTG | -0.135
69 | CACGTAGG | -0.297
70 | CGGAATTC | 0.277
71 | ACCGTGCC | -0.0925
72 | CTTATTAC | 0.101
73 | AGCGAGAA | -0.0543
74 | ACGTATCG | -0.0242
75 | TCAACAGA | 0.0503

Row | Sequence | PBM E-score
76 | CGCAGTGC | -0.204
77 | ACGTGCTC | -0.116
78 | CAGAAGCA | -0.0176
79 | ACGGCTCA | 0.155
80 | ATACTAAC | 0.026
81 | CTCGGCCA | 0.204
82 | GCTCAGTA | 0.09
83 | ACGAGTAA | 0.162
84 | ATACAGCG | -0.0106
85 | CTTATAAC | 0.163
86 | AAAGTTTG | 0.115
87 | CTACCCAC | -0.304
88 | ACCTACTG | -0.223
89 | CTGCGAGA | -0.244
90 | GATCACCC | -0.11
91 | ACTGCTGG | -0.114
92 | CGTGCACC | -0.123
93 | ACAATTCA | 0.0457
94 | TCCTGTAA | 0.0976
95 | ATGTATTC | 0.023
96 | ACACCTGC | -0.0752
97 | CGCGTATA | -0.106
98 | CGGATTAA | 0.261
99 | AGGGGCAC | -0.268
100 | GTCCGAAC | 0.23

Row | Sequence | PBM E-score
101 | CACAAACG | 0.249
102 | CCGTGGAC | -0.074
103 | AGTGGACA | 0.00221
104 | CGGGATAA | 0.268
105 | AGTTCAGG | -0.19
106 | CGAATTTC | 0.276
107 | CACTAGAA | -0.0913
108 | CACCTCCG | 0.181
109 | ATCTAGCG | -0.172
110 | CCTTTGGC | -0.189
111 | AACAACTA | 0.0541
112 | TCCAGCGA | -0.0333
113 | CGAGGAGC | -0.00945
114 | GCAACTAC | -0.0554
115 | CACGGGCC | -0.0449
116 | GTTACCGA | 0.177
117 | CTCTATGC | -0.146
118 | CACGACTA | -0.145
119 | GCTAGCCA | -0.242
120 | TAGAACAA | 0.113
121 | CCAACGAA | -0.0383
122 | CTGAACCC | -0.0694
123 | GCGACAAC | 0.106
124 | AAGTAACC | -0.0344
125 | GAAGTTCC | -0.0325

Row | Sequence | PBM E-score
126 | GTACTCCA | -0.158
127 | GAATTCTA | 0.148
128 | CCTCATTC | -0.0875
129 | TAGACCGA | 0.105
130 | GCCTAATA | -0.0645
131 | ATGCGTCA | -0.143
132 | ATCGTATG | -0.132
133 | CTATAAAA | 0.167
134 | CACGACAC | 0.0282
135 | CCACAAGA | 0.0207
136 | CCGGCGGC | 0.291
137 | GGATAAAA | 0.248
138 | ATAGCATG | -0.224
139 | AGACACAC | -0.179
140 | CGAACCCC | -0.191
141 | ATGTTGTC | -0.0701
142 | AGGTGCGC | -0.0417
143 | GCCAAGCA | -0.219
144 | ATAGCCCC | -0.379
145 | CCATCAAA | -0.0604
146 | CAGATCAA | -0.0793
147 | GTATCATA | 0.291
148 | ACGTCAGA | -0.151
149 | CGGTGAAG | 0.0982
150 | AAGCCTTC | -0.173

Reprinted at random: 4 records from the list, in no set order.
Row | Sequence | PBM E-score
147 | GTATCATA | 0.291
142 | AGGTGCGC | -0.0417
140 | CGAACCCC | -0.191
143 | GCCAAGCA | -0.219

Two entries from above, as tab-separated lines:
Row	Sequence	PBM E-score
128	CCTCATTC	-0.0875
133	CTATAAAA	0.167

(list continues)

Row | Sequence | PBM E-score
151 | CTGGACTC | -0.00465
152 | AGTGGGAT | -0.0674
153 | CCTTCCCA | -0.115
154 | AAGACCCA | -0.172
155 | CTAATACA | -0.00331
156 | AAATAACA | 0.161
157 | GCACACGC | -0.0979
158 | CCAGAAGC | -0.0398
159 | GATACGGC | 0.103
160 | TAATCTAA | 0.0908
161 | CGTTGGTC | -0.126
162 | CCTTTCGC | -0.101
163 | CACCGTAG | -0.0941
164 | ACTCCTAT | -0.011
165 | CGCCCGCG | 0.0421
166 | CGGGTACA | -0.04
167 | ACGAGCAC | -0.00524
168 | ACCTTCAA | -0.0661
169 | CCATCTCA | -0.159
170 | CAAGTCGC | -0.185
171 | AGAAATTG | 0.165
172 | CTACTCTC | -0.112

— the supplement of paper PMC3334620
